PubChem BioAssay AID720505, Drosophila RNAi Screening Center, 2013
The deposit covers about 20,000 reagents; shown is a random part of those with a known target gene and a result. Over the whole deposit, about 2,100 (10%) got an active call. 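Raw plate signals without normalisation; calls rest on control-based scores that were not deposited; replicate 2 separates called from uncalled poorly.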 Reagent sequences are not shown. The record does not give: the amount of reagent, the time to read-out.

Purpose: 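Knock-downs that reduce calcium influx once internal stores are emptied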 (primary screen)
Cells: Drosophila S2R+ cells
Reagent: long dsRNA against Drosophila genes
Treatment: thapsigargin (2 µM) in calcium-free buffer to empty internal stores, then 2 mM calcium added back
Measurement: 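Fluo-4 signal in 384-well plates read on a FLIPR after thapsigargin (2 µM, calcium-free) store depletion and 2 mM calcium add-back; unnormalised mean endpoint per well; screen run twice, selected wells retested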
Direction: calcium signal and retest calcium signal: higher = more calcium entry after store depletion
Call rule: 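Knock-downs counted as hits when calcium entry dropped relative to STIM1 positive and Rho1 negative controls present on each plate; roughly 1500 genes called, with reductions of differing size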
Calls: active = called as lowering calcium entry; inactive = not called

stas showed calcium signal, replicate 1 = 144; calcium signal, replicate 2 = 167; inactive. With knock-down of CG14362 the results were calcium signal, replicate 1 = 117; calcium signal, replicate 2 = 122; inactive. PDZ-GEF scored calcium signal, replicate 1 = 63.4; calcium signal, replicate 2 = 193; active. With knock-down of HP5 the results were calcium signal, replicate 1 = 114; calcium signal, replicate 2 = 94.4; inactive. ine showed calcium signal, replicate 1 = 148; calcium signal, replicate 2 = 136; inactive. Knock-down of Or33c resulted in: calcium signal, replicate 1 = 84.2; calcium signal, replicate 2 = 106; inactive.

Against Acn the deposit lists calcium signal, replicate 1 = 140; calcium signal, replicate 2 = 118; inactive. Sfp53D gave calcium signal, replicate 1 = 103; calcium signal, replicate 2 = 81.1; inactive. Knock-down of CG6912 resulted in: calcium signal, replicate 1 = 141; calcium signal, replicate 2 = 177; inactive. Catsup scored calcium signal, replicate 1 = 156; calcium signal, replicate 2 = 87.1; inactive. Gr36c scored calcium signal, replicate 1 = 93.7; calcium signal, replicate 2 = 153; inactive. Depletion of Ist1 came out at: calcium signal, replicate 1 = 84.9; calcium signal, replicate 2 = 151; inactive.

With knock-down of Cypl, the screen gave calcium signal, replicate 1 = 99.8; calcium signal, replicate 2 = 61.8; inactive. Knock-down of hog resulted in: calcium signal, replicate 1 = 81.5; calcium signal, replicate 2 = 111; inactive. After knock-down of Unc-115a the results were inactive.

Targets above whose target name begins with C or c:
CG14362 | calcium signal, replicate 1 = 117; calcium signal, replicate 2 = 122; Call = inactive
CG6912 | calcium signal, replicate 1 = 141; calcium signal, replicate 2 = 177; Call = inactive
Catsup | calcium signal, replicate 1 = 156; calcium signal, replicate 2 = 87.1; Call = inactive
Cypl | calcium signal, replicate 1 = 99.8; calcium signal, replicate 2 = 61.8; Call = inactive

The list goes on.
Vha100-4 showed calcium signal, replicate 1 = 175; calcium signal, replicate 2 = 181; inactive. Depletion of RnrL gave: calcium signal, replicate 1 = 88; calcium signal, replicate 2 = 71.3; inactive. Depletion of Arpc3A resulted in: calcium signal, replicate 1 = 135; calcium signal, replicate 2 = 151; inactive. After knock-down of CG5726 the results were calcium signal, replicate 1 = 132; calcium signal, replicate 2 = 99; inactive. Knock-down of CG13868 resulted in: calcium signal, replicate 1 = 212; calcium signal, replicate 2 = 106; inactive. Silencing of CG13551 resulted in: calcium signal, replicate 1 = 85.3; calcium signal, replicate 2 = 108; inactive.

For CG6428, the values are calcium signal, replicate 1 = 173; calcium signal, replicate 2 = 135; inactive. After knock-down of CG6508, the screen gave calcium signal, replicate 1 = 108; calcium signal, replicate 2 = 116; inactive. 18w showed calcium signal, replicate 1 = 178; calcium signal, replicate 2 = 171; inactive. With knock-down of CG4968, the screen gave calcium signal, replicate 1 = 91.6; calcium signal, replicate 2 = 155; retest calcium signal, replicate 1 = 81.3; retest calcium signal, replicate 2 = 95.6; inactive. With knock-down of Iris, the record shows calcium signal, replicate 1 = 126; calcium signal, replicate 2 = 203; inactive. For PyK, the values are calcium signal, replicate 1 = 191; calcium signal, replicate 2 = 165; inactive.

Silencing of CG13171 came out at: calcium signal, replicate 1 = 107; calcium signal, replicate 2 = 152; inactive.
